Reference: patent publication US8623442B2, “Palatable beverages and compositions with cocoa extract” (Mars, Incorporated., priority 2010, dated 2014)

Experiment: Palatability testing with sweeteners, sensory evaluation by expert tasters
Conditions: sweetener 40 mg/240 ml water in Example 1 type mix; expert tasters n=2

Substance: thaumatin [taumatin]
- astringency / bitterness (sensory evaluation): reduced astringency
- sweetness (sensory evaluation): failed to impart sweetness
